In article PMC5772613, “Phosphorylation induced cochaperone unfolding promotes kinase recruitment and client class-specific Hsp90 phosphorylation” (Nature Communications, 2018):
Numbering of substitutions follows the chain as printed. These are yes or no findings as the source states them, for the method shown. Binding calls can cover weak binding; strength is not graded here.

By UniProt entry, the sequences of proteins in these tests, tags left out. Where a name states a change or a piece, a line headed by the entry shows the natural chain unless it says otherwise.
UniProt P15056: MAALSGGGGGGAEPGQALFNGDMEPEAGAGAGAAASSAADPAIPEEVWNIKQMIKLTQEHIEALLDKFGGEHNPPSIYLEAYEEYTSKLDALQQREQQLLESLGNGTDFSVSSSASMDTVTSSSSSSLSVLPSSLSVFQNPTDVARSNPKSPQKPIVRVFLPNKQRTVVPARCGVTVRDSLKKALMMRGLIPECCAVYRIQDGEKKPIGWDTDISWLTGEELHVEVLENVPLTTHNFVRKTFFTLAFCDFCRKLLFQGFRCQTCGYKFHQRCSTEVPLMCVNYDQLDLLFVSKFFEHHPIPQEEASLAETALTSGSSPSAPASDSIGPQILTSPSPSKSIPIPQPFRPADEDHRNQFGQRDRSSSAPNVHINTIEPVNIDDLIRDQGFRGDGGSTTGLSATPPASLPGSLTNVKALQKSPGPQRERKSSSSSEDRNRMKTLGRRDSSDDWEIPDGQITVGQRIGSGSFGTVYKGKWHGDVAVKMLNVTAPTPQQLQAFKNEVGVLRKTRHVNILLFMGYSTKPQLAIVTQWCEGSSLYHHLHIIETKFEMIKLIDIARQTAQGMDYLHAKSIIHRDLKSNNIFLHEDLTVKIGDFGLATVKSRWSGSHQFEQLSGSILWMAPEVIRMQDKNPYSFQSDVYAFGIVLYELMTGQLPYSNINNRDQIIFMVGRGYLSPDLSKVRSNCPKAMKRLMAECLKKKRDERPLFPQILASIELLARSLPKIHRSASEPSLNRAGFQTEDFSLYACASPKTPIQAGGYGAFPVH

Legend:
[1] = molecular target: T1, Cdc37 double-phosphomimetic mutant Y4E/Y298E (human) (UniProt Q16543); assay: ITC; bRaf (35-90 μM, syringe) titrated into Cdc37 variants (~3-8 μM, cell); 20 °C; 20 mM Tris, 100 mM NaCl, 0.5 mM EDTA, 1 mM TCEP; single binding site model; both purified
T1 sequence: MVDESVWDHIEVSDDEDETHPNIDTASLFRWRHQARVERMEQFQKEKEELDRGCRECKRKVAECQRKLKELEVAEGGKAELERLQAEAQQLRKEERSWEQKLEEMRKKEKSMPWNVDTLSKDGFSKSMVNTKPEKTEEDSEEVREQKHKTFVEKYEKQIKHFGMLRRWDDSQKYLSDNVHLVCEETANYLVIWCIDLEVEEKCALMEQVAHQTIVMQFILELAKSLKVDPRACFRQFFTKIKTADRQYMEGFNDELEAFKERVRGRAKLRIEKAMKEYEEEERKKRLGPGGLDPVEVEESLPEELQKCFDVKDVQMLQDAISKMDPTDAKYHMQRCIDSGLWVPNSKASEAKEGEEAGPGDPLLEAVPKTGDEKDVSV

[2] = molecular target: T2, Cdc37 single phosphomimetic mutant Y4E (human) (UniProt Q16543); assay: as above
T2 sequence: T1 sequence with E298Y

[3] = molecular target: T3, Full-length Cdc37 carrying the phosphomimetic mutation Y298E (human) (UniProt Q16543); assay: as above
T3 sequence: T1 sequence with E4Y

[4] = molecular target: T4, Full-length human Cdc37 (human) (UniProt Q16543); assay: as above
T4 sequence: T1 sequence with E4Y, E298Y

[5] = molecular target: T1, Cdc37 double-phosphomimetic mutant Y4E/Y298E (human); assay: SEC; analytical, Biorad Enrich SEC 650, 4 °C; 20 mM Tris pH 7.5, 100 mM NaCl, 0.5 mM EDTA, 2 mM DTT; binary mixtures 1:1 and ternary mixtures Hsp90:Cdc37:bRaf 2:1:1, incubated 15 min at 4 °C; both purified
[6] = molecular target: T2, Cdc37 single phosphomimetic mutant Y4E (human); assay: as above
[7] = molecular target: T3, Full-length Cdc37 carrying the phosphomimetic mutation Y298E (human); assay: as above
[8] = molecular target: T4, Full-length human Cdc37 (human); assay: as above

Measured: binding

Catalytic domain of bRaf (from UniProt P15056) (domain or fragment)
binds: all assays above
